PubChem BioAssay AID652259 – Drosophila RNAi Screening Center, 2013

Test: 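Genome-wide hunt for genes that control Wingless pathway activity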 (primary screen)
Cell system: Drosophila clone 8 imaginal disc epithelial cells
Reagent: long dsRNA against Drosophila genes
Treatment: pathway stimulated by co-transfected Wingless expression plasmid
Measured: 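Firefly luciferase from a tcf-site Wingless reporter, measured alongside co-transfected Renilla luciferase that tracks transfection; pathway stimulated by a Wingless plasmid; the firefly-to-Renilla ratio is not deposited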
Direction: firefly reporter light: higher = more Wg reporter light, before normalisation; Renilla control light: higher = more transfected or surviving cells
Active means: 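a knock-down is a candidate when at least two out of four statistical tests show it departing from its plate mean; one test alone signals a weak candidate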
Calls: active = candidate regulator (raises or lowers reporter); inactive = not a candidate
In all, the deposit lists about 22,000 reagents; below is an unselected part of those that have a named target and a result. In the full data, 233 (1.1%) are marked active. 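Light values are raw, unnormalised plate reads; the ratio scores behind the reporter calls were not deposited.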 Entries without a mark were called inactive. Names joined by + are all predicted targets of the reagent. No sequences are given here. The record does not give: the amount of reagent, the time to read-out, the dose of the treatment.

CG15262 (GeneID 34901) [DRSC01975] scored firefly reporter light, replicate 1 = 3061; firefly reporter light, replicate 2 = 4929; Renilla control light, replicate 1 = 1331; Renilla control light, replicate 2 = 2268.
RpLP0 (GeneID 40451) [DRSC11878] showed firefly reporter light, replicate 1 = 35840; Renilla control light, replicate 1 = 5105.
Depletion of RpLP0 (GeneID 40451) [DRSC22110] came out at: firefly reporter light, replicate 1 = 5.45e5; firefly reporter light, replicate 2 = 6.56e5; Renilla control light, replicate 1 = 1.83e5; Renilla control light, replicate 2 = 1.95e5.
Against Sgs4 (GeneID 31304) [DRSC18715] the deposit lists firefly reporter light, replicate 1 = 21075; Renilla control light, replicate 1 = 13104.
With knock-down of fuss (GeneID 43835) [DRSC17200] the results were firefly reporter light, replicate 1 = 23048; Renilla control light, replicate 1 = 17223.
Silencing of fuss (GeneID 43835) [DRSC21452] gave: firefly reporter light, replicate 1 = 4.24e5; firefly reporter light, replicate 2 = 4.39e5; Renilla control light, replicate 1 = 1.27e5; Renilla control light, replicate 2 = 1.42e5.
CG3288 (GeneID 40307) [DRSC11745] scored firefly reporter light, replicate 1 = 17826; Renilla control light, replicate 1 = 5597.
For Gas8 (GeneID 31321) [DRSC22884], the entry reads firefly reporter light, replicate 1 = 8.94e5; firefly reporter light, replicate 2 = 6.62e5; Renilla control light, replicate 1 = 3.05e5; Renilla control light, replicate 2 = 68.
After knock-down of Dpck (GeneID 40846) [DRSC12575] the results were firefly reporter light, replicate 1 = 13552; Renilla control light, replicate 1 = 3016.
Remo (GeneID 2768909) [DRSC19710] gave firefly reporter light, replicate 1 = 16752; Renilla control light, replicate 1 = 12869.
For RacGAP84C (GeneID 117503) [DRSC12630] the deposit lists firefly reporter light, replicate 1 = 13821; Renilla control light, replicate 1 = 3350.
Against CR11386 + CR33222 [DRSC17781], the values are firefly reporter light, replicate 1 = 15008; Renilla control light, replicate 1 = 9233.
Against RecQ4 (GeneID 53438) [DRSC11265], the values are firefly reporter light, replicate 1 = 2326; firefly reporter light, replicate 2 = 5909; Renilla control light, replicate 1 = 1632; Renilla control light, replicate 2 = 2848.
CG3740 (GeneID 31119) [DRSC18508] gave firefly reporter light, replicate 1 = 16422; Renilla control light, replicate 1 = 12316.
Rheb (GeneID 117332) [DRSC12148] scored firefly reporter light, replicate 1 = 9104; Renilla control light, replicate 1 = 2208.
Dysb (GeneID 40052) [DRSC10730] showed firefly reporter light, replicate 1 = 5622; Renilla control light, replicate 1 = 2562.
With knock-down of Zir (GeneID 33165) [DRSC00307] the results were firefly reporter light, replicate 1 = 10427; Renilla control light, replicate 1 = 2305.
Silencing of CG3078 (GeneID 31211) [DRSC18531] came out at: firefly reporter light, replicate 1 = 2503; firefly reporter light, replicate 2 = 3147; Renilla control light, replicate 1 = 1099; Renilla control light, replicate 2 = 1376.
CG12945 (GeneID 41204) [DRSC14573] scored firefly reporter light, replicate 1 = 17715; Renilla control light, replicate 1 = 4352.
After knock-down of CG34330 (GeneID 2768869) [DRSC20043], the record shows firefly reporter light, replicate 1 = 23309; Renilla control light, replicate 1 = 10472.
Silencing of ItgaPS5 (GeneID 37732) [DRSC04501] gave: firefly reporter light, replicate 1 = 3400; firefly reporter light, replicate 2 = 10922; Renilla control light, replicate 1 = 877; Renilla control light, replicate 2 = 4053.
CG12123 (GeneID 31777) [DRSC17818] showed firefly reporter light, replicate 1 = 2465; firefly reporter light, replicate 2 = 3996; Renilla control light, replicate 1 = 1179; Renilla control light, replicate 2 = 1884.

2 of these entries, set out differently.
Zir (GeneID 33165) [DRSC00307]
- firefly reporter light, replicate 1: 10427
- Renilla control light, replicate 1: 2305

CG3078 (GeneID 31211) [DRSC18531]
- firefly reporter light, replicate 1: 2503
- firefly reporter light, replicate 2: 3147
- Renilla control light, replicate 1: 1099
- Renilla control light, replicate 2: 1376

The listing continues:
Against lncRNA:mimi (GeneID 12798523) [DRSC21429] the deposit lists firefly reporter light, replicate 1 = 3.25e5; firefly reporter light, replicate 2 = 3.50e5; Renilla control light, replicate 1 = 1.68e5; Renilla control light, replicate 2 = 1.44e5.
After knock-down of CheA86a (GeneID 3772145) [DRSC12839] the results were firefly reporter light, replicate 1 = 3257; Renilla control light, replicate 1 = 235.
For nAChRalpha4 (GeneID 40521) [DRSC11925], the entry reads firefly reporter light, replicate 1 = 3610; Renilla control light, replicate 1 = 1872.
With knock-down of nAChRalpha4 (GeneID 40521) [DRSC11929], the screen gave firefly reporter light, replicate 1 = 4593; Renilla control light, replicate 1 = 2452.
CG7384 (GeneID 34447) [DRSC03053] scored firefly reporter light, replicate 1 = 10089; Renilla control light, replicate 1 = 1948.
Silencing of zormin (GeneID 2769001) [DRSC07969] came out at: firefly reporter light, replicate 1 = 3488; Renilla control light, replicate 1 = 1718.
Against zormin (GeneID 2769001) [DRSC08210], the entry reads firefly reporter light, replicate 1 = 5035; Renilla control light, replicate 1 = 2316.
For zormin (GeneID 2769001) [DRSC08212], the values are firefly reporter light, replicate 1 = 3860; Renilla control light, replicate 1 = 2074.
zormin (GeneID 2769001) [DRSC08213] scored firefly reporter light, replicate 1 = 5330; Renilla control light, replicate 1 = 2381.
With knock-down of zormin (GeneID 2769001) [DRSC08297], the record shows firefly reporter light, replicate 1 = 4155; Renilla control light, replicate 1 = 2124.
Against zormin (GeneID 2769001) [DRSC08571], the values are firefly reporter light, replicate 1 = 19971; Renilla control light, replicate 1 = 2880.
For zormin (GeneID 2769001) [DRSC22483], the values are firefly reporter light, replicate 1 = 8.34e5; firefly reporter light, replicate 2 = 7.19e5; Renilla control light, replicate 1 = 4.19e5; Renilla control light, replicate 2 = 5562.
